Binding signal data for 30 sequences are collected here from article PMC7862700.

Amino acid sequences for entries named in this document (tags omitted). A change or cut given only in a name is not applied to a line headed by its entry.
UniProt P32519: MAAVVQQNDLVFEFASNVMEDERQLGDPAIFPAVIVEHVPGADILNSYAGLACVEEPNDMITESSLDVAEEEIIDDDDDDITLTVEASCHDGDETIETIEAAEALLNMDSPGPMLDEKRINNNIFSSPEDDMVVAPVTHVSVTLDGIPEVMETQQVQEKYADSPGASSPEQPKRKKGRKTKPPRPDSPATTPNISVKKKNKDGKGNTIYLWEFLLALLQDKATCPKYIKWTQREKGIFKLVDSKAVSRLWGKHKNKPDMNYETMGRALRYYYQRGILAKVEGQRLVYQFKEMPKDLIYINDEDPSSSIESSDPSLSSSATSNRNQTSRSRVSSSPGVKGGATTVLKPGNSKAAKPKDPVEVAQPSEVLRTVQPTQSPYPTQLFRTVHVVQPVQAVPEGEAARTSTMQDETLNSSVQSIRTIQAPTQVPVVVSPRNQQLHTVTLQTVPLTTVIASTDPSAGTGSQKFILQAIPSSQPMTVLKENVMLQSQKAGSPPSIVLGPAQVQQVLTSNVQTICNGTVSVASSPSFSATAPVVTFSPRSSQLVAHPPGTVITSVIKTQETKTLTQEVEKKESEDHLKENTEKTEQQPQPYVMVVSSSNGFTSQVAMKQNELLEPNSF
UniProt P50549: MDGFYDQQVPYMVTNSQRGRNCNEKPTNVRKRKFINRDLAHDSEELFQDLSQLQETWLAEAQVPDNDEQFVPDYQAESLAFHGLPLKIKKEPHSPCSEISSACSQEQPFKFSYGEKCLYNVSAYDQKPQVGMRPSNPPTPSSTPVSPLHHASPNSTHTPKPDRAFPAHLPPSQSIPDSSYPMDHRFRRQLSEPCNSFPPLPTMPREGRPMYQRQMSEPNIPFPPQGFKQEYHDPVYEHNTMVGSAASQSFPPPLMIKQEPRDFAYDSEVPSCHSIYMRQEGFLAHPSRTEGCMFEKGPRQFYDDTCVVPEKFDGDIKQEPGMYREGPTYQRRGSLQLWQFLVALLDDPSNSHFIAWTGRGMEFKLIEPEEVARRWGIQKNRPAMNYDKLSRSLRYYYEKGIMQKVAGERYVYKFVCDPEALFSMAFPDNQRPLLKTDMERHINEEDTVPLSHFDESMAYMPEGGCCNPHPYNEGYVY

Only a part is listed here, and it is no random draw. For part of these data: At the low end of the ranking the order means little. The list shows a part of the results. For part of these data: The exact form of the protein is not confirmed.

Experiment in all cases: DAPPL (digital affinity profiling via proximity ligation, sequencing)
Common to all, as to conditions: 10 mM Tris-HCl pH 7.5, 50 mM NaCl, 1 mM DTT, 4% glycerol, room temperature, 30 min; GST-TFs on glutathione beads, 16-mer random dsDNA library, 0.1% …; high values mean tight binding; double strand, one strand shown; scale: fold enrichment (6-mer frequency, TF over GST control)

One experiment deals with T1, ERG (UniProt P11308).
T1 sequence: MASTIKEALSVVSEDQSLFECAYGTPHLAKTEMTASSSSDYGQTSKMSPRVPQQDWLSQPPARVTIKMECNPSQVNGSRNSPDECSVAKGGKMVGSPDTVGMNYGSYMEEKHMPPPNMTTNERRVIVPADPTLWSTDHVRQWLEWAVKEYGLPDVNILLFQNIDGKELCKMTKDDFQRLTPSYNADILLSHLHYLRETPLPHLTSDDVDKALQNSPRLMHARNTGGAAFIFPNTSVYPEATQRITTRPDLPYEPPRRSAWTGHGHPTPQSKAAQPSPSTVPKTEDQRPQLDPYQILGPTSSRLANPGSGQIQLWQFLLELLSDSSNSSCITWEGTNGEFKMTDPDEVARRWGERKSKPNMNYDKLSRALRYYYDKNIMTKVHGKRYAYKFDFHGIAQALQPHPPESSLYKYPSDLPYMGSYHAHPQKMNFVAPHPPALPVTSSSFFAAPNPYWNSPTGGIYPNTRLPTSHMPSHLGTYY

The target of another experiment is ELF1 (UniProt P32519).
The target of another experiment is T2, ELK4 (UniProt P28324-2).
T2 sequence: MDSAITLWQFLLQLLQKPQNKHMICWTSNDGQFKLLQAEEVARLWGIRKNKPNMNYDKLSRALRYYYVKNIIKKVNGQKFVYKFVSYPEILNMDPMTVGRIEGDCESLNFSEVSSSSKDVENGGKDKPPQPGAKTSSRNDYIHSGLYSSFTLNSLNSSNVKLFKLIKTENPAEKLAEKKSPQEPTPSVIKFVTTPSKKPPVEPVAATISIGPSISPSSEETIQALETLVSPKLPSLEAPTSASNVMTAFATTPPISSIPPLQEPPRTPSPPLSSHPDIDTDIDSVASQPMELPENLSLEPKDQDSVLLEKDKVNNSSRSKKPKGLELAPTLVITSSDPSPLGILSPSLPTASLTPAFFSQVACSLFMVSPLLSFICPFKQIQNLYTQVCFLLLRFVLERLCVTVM

The target in another experiment is T3, ETV4 (UniProt P43268).
T3 sequence: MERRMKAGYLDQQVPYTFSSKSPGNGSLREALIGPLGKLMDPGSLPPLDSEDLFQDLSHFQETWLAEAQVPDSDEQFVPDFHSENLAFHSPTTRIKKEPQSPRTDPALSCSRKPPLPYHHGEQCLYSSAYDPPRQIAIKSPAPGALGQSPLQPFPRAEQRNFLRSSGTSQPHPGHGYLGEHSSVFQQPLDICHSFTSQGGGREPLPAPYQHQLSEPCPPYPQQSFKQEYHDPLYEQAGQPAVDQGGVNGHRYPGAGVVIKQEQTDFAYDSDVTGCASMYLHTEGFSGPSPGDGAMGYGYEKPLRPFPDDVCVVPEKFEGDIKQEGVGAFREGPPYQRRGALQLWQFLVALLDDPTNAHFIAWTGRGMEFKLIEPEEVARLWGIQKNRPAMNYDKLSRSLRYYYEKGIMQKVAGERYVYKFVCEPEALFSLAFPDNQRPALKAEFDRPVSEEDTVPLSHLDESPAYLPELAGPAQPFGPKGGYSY

The next experiment addresses ETV1 (UniProt P50549).
The target of a further experiment is T4, ERF (UniProt P50548).
T4 sequence: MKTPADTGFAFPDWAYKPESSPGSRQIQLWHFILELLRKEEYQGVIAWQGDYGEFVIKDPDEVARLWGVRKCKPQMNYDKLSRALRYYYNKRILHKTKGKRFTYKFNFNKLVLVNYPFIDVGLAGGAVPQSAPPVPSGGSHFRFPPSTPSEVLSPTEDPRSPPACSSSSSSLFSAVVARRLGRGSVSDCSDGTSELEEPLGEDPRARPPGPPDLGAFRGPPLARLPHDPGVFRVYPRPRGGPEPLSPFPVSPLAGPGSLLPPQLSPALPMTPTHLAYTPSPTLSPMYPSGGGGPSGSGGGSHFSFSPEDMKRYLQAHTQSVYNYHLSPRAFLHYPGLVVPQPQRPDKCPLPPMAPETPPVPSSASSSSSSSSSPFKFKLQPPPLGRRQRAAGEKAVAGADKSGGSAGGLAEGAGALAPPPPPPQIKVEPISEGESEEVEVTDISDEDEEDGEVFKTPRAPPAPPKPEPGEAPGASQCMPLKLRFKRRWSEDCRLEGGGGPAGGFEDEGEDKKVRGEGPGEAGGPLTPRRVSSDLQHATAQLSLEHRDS

In the case of AGACTA, the binding signal with ERG amounted to 0.805; with ELF1, 0.811; with ELK4, 0.682; in the experiment with ETV4, 0.801; with ETV1, 0.796; with ERF it was 0.82.

Regarding CAGTTA, the binding signal in the experiment with ERG was 0.802; with ELF1, 0.734; with ELK4, 0.833; in the experiment with ETV4, 0.736; with ETV1, 0.751; with ERF it was 0.837.

Take CAAGTC: the binding signal in the experiment with ERG stood at 0.847; with ELF1 it was 0.871; in the experiment with ELK4, 0.957; in the experiment with ETV4, 0.842; in the experiment with ETV1, 0.827; with ERF, 0.767.

For TCGGAT, the binding signal with ERG came to 0.542; in the experiment with ELF1 it was 0.518; with ELK4, 0.541; in the experiment with ETV4 it was 0.512; with ETV1, 0.507; with ERF, 0.539.

Take AGTGAG: the binding signal is 0.275 in the experiment with ERG; 0.235 with ELF1; 0.238 in the experiment with ELK4; 0.228 with ETV4; 0.256 with ETV1; 0.278 in the experiment with ERF.

On to GTAGTC, for which the binding signal is 0.683 with ERG; 0.703 with ELF1; 0.643 in the experiment with ELK4; 0.747 with ETV4; 0.681 with ETV1; 0.67 with ERF.

Regarding GGGTGT, the binding signal with ERG is 0.761; with ELF1, 0.736; with ELK4, 0.789; with ETV4, 0.72; with ETV1, 0.69; with ERF, 0.774.

Consider ACGCAA, for which the binding signal in the experiment with ERG amounted to 0.901; with ELF1, 0.94; with ELK4, 0.964; in the experiment with ETV4, 0.904; with ETV1, 0.99; with ERF it was 0.942.

ACAGTG: the binding signal in the experiment with ERG came out at 0.48; with ELF1, 0.497; in the experiment with ELK4, 0.494; with ETV4 it was 0.49; with ETV1, 0.447; with ERF, 0.513.

Take TCCAGG: the binding signal came out at 0.816 with ERG; 0.791 with ELF1; 0.752 with ELK4; 0.796 with ETV4; 0.866 in the experiment with ETV1; 0.87 with ERF.

On to GACAGG, for which the binding signal with ERG came to 0.634; with ELF1, 0.585; with ELK4, 0.585; with ETV4, 0.591; with ETV1, 0.556; with ERF, 0.558.

Regarding GTCGTG, the binding signal came out at 0.413 with ERG; 0.407 with ELF1; 0.359 with ELK4; 0.378 in the experiment with ETV4; 0.392 in the experiment with ETV1; 0.412 with ERF.

Consider CGGAAT, for which the binding signal worked out at 0.955 with ERG; 0.874 in the experiment with ELF1; 0.896 with ELK4; 0.901 with ETV4; 0.96 with ETV1; 0.944 in the experiment with ERF.

Regarding GGCCAG, the binding signal amounted to 0.467 in the experiment with ERG; 0.477 with ELF1; 0.475 in the experiment with ELK4; 0.416 in the experiment with ETV4; 0.453 with ETV1; 0.402 in the experiment with ERF.

As for AAAGGA, the binding signal with ERG worked out at 0.941; with ELF1 it was 0.847; with ELK4, 0.783; with ETV4 it was 0.834; with ETV1, 0.889; with ERF, 0.887.

Consider CATGGA, for which the binding signal was determined as 0.885 with ERG; 0.866 in the experiment with ELF1; 0.919 with ELK4; 0.876 with ETV4; 0.902 in the experiment with ETV1; 0.993 with ERF.

As for GGAATC, the binding signal with ERG came to 0.76; with ELF1 it was 0.685; with ELK4, 0.666; with ETV4, 0.73; with ETV1, 0.727; in the experiment with ERF it was 0.703.

As for CGGACG, the binding signal with ERG was found to be 0.499; with ELF1, 0.433; with ELK4, 0.418; with ETV4 it was 0.477; with ETV1, 0.465; with ERF it was 0.448.

On to CAGGAG, for which the binding signal with ERG was found to be 0.276; in the experiment with ELF1, 0.265; with ELK4, 0.239; in the experiment with ETV4, 0.252; with ETV1, 0.238; in the experiment with ERF it was 0.249.

GAGTGC: the binding signal was determined as 0.667 in the experiment with ERG; 0.678 with ELF1; 0.75 with ELK4; 0.7 in the experiment with ETV4; 0.723 in the experiment with ETV1; 0.783 with ERF.

As to CCGGGA, the binding signal in the experiment with ERG stood at 0.499; with ELF1, 0.472; with ELK4, 0.46; with ETV4, 0.491; in the experiment with ETV1, 0.52; in the experiment with ERF it was 0.48.

Take TAGACG: the binding signal with ERG worked out at 0.782; with ELF1 it was 0.798; in the experiment with ELK4, 0.87; with ETV4, 0.775; in the experiment with ETV1, 0.786; with ERF it was 0.767.

As for GGGCGC, the binding signal with ERG came to 0.663; with ELF1 it was 0.653; in the experiment with ELK4 it was 0.646; with ETV4, 0.641; in the experiment with ETV1, 0.693; in the experiment with ERF, 0.654.

As for AGGCCG, the binding signal was determined as 0.506 with ERG; 0.454 with ELF1; 0.442 with ELK4; 0.461 in the experiment with ETV4; 0.458 with ETV1; 0.502 with ERF.

CGGGAT: the binding signal with ERG was determined as 0.614; in the experiment with ELF1, 0.622; with ELK4, 0.684; with ETV4, 0.598; with ETV1, 0.663; with ERF, 0.644.

As for GAGTCT, the binding signal came out at 0.415 with ERG; 0.397 in the experiment with ELF1; 0.449 with ELK4; 0.446 in the experiment with ETV4; 0.418 with ETV1; 0.426 with ERF.

Take CCCAGC: the binding signal in the experiment with ERG was found to be 0.865; in the experiment with ELF1, 0.935; with ELK4, 0.961; in the experiment with ETV4 it was 0.857; with ETV1, 0.836; with ERF, 0.938.

GGTCGG: the binding signal in the experiment with ERG was 0.298; with ELF1, 0.252; with ELK4 it was 0.267; with ETV4, 0.269; in the experiment with ETV1, 0.25; with ERF, 0.28.

On to CGGTGC, for which the binding signal with ERG was found to be 0.696; in the experiment with ELF1 it was 0.648; in the experiment with ELK4 it was 0.656; in the experiment with ETV4 it was 0.737; with ETV1, 0.707; with ERF it was 0.618.

With TGTCGT, the binding signal is 0.839 with ERG; 0.783 with ELF1; 0.94 in the experiment with ELK4; 0.834 in the experiment with ETV4; 0.887 with ETV1; 0.896 in the experiment with ERF.
